Experimental data from the supplement of paper PMC10849652.
The list shows a part of the results.

The chains behind the UniProt entries cited, without tags or fusion partners. Where a name states a change or a piece, a line headed by the entry shows the natural chain unless it says otherwise.
UniProt A4D0V7: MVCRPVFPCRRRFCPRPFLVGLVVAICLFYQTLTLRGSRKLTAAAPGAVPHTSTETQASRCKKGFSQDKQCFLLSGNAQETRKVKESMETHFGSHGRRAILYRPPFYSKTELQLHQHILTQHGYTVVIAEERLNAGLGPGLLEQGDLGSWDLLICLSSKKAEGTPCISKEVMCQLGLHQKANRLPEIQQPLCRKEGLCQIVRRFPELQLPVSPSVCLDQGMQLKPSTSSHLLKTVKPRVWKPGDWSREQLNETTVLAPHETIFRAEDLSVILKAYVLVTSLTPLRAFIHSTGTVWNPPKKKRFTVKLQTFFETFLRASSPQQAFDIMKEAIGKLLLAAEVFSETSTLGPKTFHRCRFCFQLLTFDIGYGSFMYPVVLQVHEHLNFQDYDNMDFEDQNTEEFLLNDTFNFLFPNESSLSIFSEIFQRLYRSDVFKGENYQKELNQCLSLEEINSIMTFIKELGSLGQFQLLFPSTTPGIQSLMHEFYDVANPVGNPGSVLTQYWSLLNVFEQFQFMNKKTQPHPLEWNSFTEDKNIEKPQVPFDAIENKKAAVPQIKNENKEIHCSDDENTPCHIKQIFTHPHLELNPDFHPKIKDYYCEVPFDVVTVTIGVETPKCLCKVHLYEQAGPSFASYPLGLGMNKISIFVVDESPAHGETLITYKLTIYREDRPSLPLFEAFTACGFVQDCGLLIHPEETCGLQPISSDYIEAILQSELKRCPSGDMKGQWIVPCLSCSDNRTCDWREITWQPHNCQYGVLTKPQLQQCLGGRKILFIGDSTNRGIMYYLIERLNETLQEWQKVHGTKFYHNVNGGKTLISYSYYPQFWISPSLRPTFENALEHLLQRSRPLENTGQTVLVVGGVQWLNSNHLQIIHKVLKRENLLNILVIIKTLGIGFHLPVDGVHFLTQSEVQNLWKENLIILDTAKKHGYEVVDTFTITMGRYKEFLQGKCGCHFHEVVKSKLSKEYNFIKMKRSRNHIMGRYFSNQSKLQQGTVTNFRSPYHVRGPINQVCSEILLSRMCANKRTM
UniProt P61923: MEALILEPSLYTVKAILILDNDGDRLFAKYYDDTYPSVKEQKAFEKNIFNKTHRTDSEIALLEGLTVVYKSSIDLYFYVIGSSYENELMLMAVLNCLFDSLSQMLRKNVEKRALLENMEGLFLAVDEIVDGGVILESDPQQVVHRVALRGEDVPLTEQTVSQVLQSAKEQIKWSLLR
UniProt Q14746: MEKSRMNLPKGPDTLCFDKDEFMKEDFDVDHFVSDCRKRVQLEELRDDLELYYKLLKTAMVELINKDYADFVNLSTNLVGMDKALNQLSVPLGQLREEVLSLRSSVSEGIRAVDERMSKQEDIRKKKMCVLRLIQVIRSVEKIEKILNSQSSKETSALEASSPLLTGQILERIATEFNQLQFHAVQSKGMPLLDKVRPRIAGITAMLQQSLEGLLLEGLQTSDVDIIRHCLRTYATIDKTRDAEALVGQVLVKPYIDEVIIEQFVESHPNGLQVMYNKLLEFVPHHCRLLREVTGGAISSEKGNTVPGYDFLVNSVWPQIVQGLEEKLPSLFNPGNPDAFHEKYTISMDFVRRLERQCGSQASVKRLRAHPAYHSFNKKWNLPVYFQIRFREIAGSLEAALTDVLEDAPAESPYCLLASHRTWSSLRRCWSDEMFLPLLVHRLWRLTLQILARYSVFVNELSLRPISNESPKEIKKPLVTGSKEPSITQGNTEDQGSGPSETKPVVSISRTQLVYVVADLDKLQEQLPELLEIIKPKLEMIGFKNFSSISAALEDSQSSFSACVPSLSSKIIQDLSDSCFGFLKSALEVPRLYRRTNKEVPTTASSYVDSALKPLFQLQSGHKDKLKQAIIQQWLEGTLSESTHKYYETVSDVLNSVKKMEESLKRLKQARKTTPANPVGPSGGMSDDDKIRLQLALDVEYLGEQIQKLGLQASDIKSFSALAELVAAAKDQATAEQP
UniProt Q9GZY4: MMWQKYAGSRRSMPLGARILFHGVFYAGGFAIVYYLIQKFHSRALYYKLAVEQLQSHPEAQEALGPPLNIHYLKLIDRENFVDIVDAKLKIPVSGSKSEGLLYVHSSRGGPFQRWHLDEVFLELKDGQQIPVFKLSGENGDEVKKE
UniProt Q99807: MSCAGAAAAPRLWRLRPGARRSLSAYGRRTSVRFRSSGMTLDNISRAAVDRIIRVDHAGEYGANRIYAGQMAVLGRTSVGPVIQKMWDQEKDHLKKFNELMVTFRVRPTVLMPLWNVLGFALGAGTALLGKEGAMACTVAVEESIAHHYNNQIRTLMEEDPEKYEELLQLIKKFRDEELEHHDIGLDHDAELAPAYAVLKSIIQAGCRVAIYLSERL
UniProt O43405: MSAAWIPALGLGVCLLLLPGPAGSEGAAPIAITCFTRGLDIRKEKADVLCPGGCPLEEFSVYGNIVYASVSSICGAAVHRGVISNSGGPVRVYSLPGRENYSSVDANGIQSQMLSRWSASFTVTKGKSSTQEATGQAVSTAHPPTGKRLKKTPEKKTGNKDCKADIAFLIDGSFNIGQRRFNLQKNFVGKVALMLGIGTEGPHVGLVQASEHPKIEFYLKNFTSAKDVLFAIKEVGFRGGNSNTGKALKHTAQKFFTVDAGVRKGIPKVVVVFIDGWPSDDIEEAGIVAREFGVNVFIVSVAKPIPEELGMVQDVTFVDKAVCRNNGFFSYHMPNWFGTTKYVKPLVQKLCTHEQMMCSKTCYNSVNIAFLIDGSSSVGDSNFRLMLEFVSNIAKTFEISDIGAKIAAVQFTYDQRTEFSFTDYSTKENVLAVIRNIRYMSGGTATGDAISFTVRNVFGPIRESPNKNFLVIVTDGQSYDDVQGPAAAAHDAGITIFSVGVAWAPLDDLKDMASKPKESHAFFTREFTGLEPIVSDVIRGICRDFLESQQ
UniProt Q8N8Q8: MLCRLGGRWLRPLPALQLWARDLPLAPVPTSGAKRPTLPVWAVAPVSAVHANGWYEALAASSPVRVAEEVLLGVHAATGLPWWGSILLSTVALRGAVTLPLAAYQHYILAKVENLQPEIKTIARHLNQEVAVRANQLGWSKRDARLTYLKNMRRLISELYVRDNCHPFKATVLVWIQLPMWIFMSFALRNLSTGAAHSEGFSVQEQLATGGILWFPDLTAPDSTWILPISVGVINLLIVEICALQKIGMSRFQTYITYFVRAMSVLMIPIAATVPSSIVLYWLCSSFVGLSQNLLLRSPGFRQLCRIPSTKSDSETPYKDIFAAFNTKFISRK
UniProt Q9H9E3: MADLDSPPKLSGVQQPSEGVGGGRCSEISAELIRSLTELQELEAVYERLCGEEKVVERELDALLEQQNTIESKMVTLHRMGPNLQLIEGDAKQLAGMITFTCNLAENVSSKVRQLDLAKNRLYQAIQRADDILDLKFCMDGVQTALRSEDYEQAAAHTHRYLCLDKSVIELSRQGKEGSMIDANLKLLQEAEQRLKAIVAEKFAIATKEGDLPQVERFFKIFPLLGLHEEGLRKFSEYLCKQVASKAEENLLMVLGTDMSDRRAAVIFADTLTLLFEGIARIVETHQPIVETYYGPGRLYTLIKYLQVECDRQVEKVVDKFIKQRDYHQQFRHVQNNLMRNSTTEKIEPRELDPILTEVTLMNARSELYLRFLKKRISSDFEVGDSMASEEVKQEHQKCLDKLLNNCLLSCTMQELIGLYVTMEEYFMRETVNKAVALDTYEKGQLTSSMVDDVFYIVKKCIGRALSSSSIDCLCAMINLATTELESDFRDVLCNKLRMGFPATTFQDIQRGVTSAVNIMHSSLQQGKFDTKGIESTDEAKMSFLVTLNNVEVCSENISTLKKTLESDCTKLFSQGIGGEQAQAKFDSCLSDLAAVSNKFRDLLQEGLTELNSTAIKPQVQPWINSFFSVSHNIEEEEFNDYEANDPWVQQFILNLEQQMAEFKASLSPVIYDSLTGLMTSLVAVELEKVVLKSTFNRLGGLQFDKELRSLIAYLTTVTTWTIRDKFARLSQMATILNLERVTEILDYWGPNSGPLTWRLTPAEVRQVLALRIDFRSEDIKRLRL
UniProt P31327: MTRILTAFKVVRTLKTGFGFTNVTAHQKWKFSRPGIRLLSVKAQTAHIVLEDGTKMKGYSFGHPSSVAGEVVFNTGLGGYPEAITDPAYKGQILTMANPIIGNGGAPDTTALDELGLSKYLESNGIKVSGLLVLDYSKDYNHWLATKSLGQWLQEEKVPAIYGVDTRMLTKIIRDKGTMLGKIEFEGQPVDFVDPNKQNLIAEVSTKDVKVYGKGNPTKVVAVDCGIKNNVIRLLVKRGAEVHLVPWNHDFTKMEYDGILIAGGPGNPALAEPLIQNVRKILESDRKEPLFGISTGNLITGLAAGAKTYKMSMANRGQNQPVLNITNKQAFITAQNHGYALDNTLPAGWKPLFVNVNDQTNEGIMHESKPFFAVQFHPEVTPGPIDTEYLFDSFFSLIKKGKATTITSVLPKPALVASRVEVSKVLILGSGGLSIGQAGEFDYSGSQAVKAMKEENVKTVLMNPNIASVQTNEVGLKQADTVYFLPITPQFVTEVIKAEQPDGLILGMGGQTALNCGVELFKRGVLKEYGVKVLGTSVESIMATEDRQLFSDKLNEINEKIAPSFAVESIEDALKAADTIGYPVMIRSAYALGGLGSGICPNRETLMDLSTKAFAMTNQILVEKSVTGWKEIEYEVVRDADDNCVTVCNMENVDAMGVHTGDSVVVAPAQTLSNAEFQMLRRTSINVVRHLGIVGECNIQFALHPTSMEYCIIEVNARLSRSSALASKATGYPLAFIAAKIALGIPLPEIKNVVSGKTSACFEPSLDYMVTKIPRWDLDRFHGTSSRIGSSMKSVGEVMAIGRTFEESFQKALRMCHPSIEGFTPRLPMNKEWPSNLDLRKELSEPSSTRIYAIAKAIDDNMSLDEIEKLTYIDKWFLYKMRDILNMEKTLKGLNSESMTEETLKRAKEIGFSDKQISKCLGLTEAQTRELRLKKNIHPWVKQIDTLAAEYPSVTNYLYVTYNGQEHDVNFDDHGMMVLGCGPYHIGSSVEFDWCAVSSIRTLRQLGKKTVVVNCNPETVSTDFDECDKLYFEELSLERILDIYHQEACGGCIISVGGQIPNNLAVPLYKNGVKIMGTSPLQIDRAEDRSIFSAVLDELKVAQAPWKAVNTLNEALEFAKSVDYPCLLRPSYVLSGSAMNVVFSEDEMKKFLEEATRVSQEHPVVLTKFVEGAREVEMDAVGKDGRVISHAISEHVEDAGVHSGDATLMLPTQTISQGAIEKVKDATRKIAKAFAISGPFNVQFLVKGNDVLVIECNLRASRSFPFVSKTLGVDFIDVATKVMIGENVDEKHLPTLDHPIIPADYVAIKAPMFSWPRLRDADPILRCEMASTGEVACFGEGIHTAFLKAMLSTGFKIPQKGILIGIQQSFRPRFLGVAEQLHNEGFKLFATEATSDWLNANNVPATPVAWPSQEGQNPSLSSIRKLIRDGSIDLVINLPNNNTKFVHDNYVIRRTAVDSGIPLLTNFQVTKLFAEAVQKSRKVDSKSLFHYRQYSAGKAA
UniProt P61201: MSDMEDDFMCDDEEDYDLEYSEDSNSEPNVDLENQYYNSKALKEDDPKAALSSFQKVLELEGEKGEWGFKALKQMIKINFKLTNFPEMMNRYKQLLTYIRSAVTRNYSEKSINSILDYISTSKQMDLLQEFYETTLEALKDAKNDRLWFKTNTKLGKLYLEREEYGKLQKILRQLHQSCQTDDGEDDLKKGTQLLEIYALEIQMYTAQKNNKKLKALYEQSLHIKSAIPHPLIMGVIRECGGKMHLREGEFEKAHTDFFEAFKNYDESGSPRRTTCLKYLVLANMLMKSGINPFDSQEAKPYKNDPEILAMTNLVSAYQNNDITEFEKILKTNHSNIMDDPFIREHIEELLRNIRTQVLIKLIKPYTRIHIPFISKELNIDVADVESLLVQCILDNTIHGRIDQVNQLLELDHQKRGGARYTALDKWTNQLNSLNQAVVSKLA
UniProt O14548: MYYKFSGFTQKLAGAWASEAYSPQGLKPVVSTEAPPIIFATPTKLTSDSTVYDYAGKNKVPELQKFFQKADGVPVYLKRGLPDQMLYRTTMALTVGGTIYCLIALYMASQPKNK
UniProt P14854, whole entry, looked up: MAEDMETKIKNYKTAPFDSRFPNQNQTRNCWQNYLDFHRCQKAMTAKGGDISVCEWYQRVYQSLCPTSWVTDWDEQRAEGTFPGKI
UniProt O95639, whole entry, looked up: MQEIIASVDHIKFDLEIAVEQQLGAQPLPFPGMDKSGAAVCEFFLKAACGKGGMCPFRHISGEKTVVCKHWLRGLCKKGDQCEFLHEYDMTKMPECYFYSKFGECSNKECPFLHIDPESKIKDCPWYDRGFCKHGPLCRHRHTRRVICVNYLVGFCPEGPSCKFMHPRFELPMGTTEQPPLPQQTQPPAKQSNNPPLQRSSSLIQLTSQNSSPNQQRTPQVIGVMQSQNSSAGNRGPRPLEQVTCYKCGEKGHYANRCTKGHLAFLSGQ
UniProt Q49B96: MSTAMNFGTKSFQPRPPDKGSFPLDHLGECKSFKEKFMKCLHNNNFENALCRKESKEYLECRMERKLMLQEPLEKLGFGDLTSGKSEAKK

Experiments:
Experiment in all cases: log2 fold change, soluble protein after heating vs DMSO (PISA); higher = thermal stabilisation; K562 lysate, 10 uM; active = over 0.2 and 3.5 SD of the protein, either way, in both replicates (recomputed)
alvocidib = compound: CN1CC[C@H](c2c(O)cc(O)c3c(=O)cc(-c4ccccc4Cl)oc23)[C@H](O)C1 [alvocidib]
In short: (§1)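 A 30 min treatment with 10 μM compound was applied to crude K562 extract at 1 mg/mL protein in PBS pH 7.4 with 1 mM MgCl2. Heating for 3 min spanned 48°C-58°C, after which aliquots were pooled, adjusted to 0.5% NP-40 at 4°C and spun at 21,000xg for 90 min. TMTpro 16plex LC-MS/MS of the supernatant, with channel sums equalised, gave values recorded as log-two fold change in thermal stability against solvent controls, from duplicates.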

Tubastatin A = compound: CN1CCc2c(c3ccccc3n2Cc2ccc(C(=O)NO)cc2)C1 [Tubastatin A]
In short: as §1

[1] = compound: CNC(=O)C1=CC=CC=C1NC2=NC(=NC=C2Cl)NC3=C(C=C(C=C3)N4CCOCC4)OC
In short: as §1

defactinib = compound: CNC(=O)c1ccc(Nc2ncc(C(F)(F)F)c(NCc3nccnc3N(C)S(C)(=O)=O)n2)cc1 [defactinib]
In short: as §1

[2] = compound: CNc1nc(-c2ccc3c(N)n[nH]c3c2)cc(N2C[C@@H](C(=O)NC3CCCCC3)CC[C@H]2C)n1
In short: as §1

encorafenib = compound: COC(=O)N[C@@H](C)CNc1nccc(-c2cn(C(C)C)nc2-c2cc(Cl)cc(NS(C)(=O)=O)c2F)n1 [encorafenib]
In short: as §1

[3] = compound: COC(=O)[C@H](CCSC)NC(=O)C1=C(C=C(C=C1)NC[C@H](CS)N)C2=CC=CC=C2
In short: as §1

alisertib = compound: COc1cc(Nc2ncc3c(n2)-c2ccc(Cl)cc2C(c2c(F)cccc2OC)=NC3)ccc1C(=O)O [alisertib]
In short: as §1

[4] = compound: COc1cc2nc(-c3cc(F)ccc3O)nc(N[C@@H]3CNC[C@H]3C(C)(C)O)c2cc1OC
In short: as §1

gefitinib = compound: COc1cc2ncnc(Nc3ccc(F)c(Cl)c3)c2cc1OCCCN1CCOCC1 [gefitinib]
In short: as §1

lapatinib = compound: CS(=O)(=O)CCNCc1ccc(-c2ccc3ncnc(Nc4ccc(OCc5cccc(F)c5)c(Cl)c4)c3c2)o1 [lapatinib]
In short: as §1

pictilisib = compound: CS(=O)(=O)N1CCN(Cc2cc3nc(-c4cccc5[nH]ncc45)nc(N4CCOCC4)c3s2)CC1 [pictilisib]
In short: as §1

crizotinib = compound: C[C@@H](Oc1cc(-c2cnn(C3CCNCC3)c2)cnc1N)c1c(Cl)ccc(F)c1Cl [crizotinib]
In short: as §1

[5] = compound: C[C@H](C1=CC=C(C=C1)C(=O)NC2=C3C=CNC3=NC=C2)N
In short: as §1

duvelisib = compound: C[C@H](Nc1ncnc2nc[nH]c12)c1cc2cccc(Cl)c2c(=O)n1-c1ccccc1 [duvelisib]
In short: as §1

gandotinib = compound: Cc1cc(Nc2cc(CN3CCOCC3)c3nc(C)c(Cc4ccc(Cl)cc4F)n3n2)n[nH]1 [gandotinib]
In short: as §1

tozasertib = compound: Cc1cc(Nc2cc(N3CCN(C)CC3)nc(Sc3ccc(NC(=O)C4CC4)cc3)n2)n[nH]1 [tozasertib]
In short: as §1

doramapimod = compound: Cc1ccc(-n2nc(C(C)(C)C)cc2NC(=O)Nc2ccc(OCCN3CCOCC3)c3ccccc23)cc1 [doramapimod]
In short: as §1

bafetinib = compound: Cc1ccc(NC(=O)c2ccc(CN3CC[C@H](N(C)C)C3)c(C(F)(F)F)c2)cc1Nc1nccc(-c2cncnc2)n1 [bafetinib]
In short: as §1

[6] = compound: Cc1cccc(CC(=O)N2CCc3c2ccc(-c2cn(C)c4ncnc(N)c24)c3F)n1
In short: as §1

Measured: log2 fold change

CPED1 (UniProt A4D0V7)
inactive: alvocidib -0.014 | Tubastatin A 0.025 | [1] 0.01 | defactinib -0.036 | [2] 0.152 | encorafenib 0.054 | [3] 0.041 | alisertib 0.012 | [4] 0.118 | gefitinib -0.072 | lapatinib 0.011 | pictilisib 0.032 | crizotinib -0.016 | [5] -0.045 | duvelisib 0.057 | gandotinib 0.014 | tozasertib -0.038 | doramapimod 0.012 | bafetinib -0.016 | [6] 0.112

COPZ1 isoform 4 (UniProt P61923)
inactive: alvocidib 0.084 | Tubastatin A 0.055 | [1] 0.081 | defactinib 0.166 | [2] -0.093 | encorafenib -0.011 | [3] -0.049 | alisertib 0.045 | [4] -0.077 | gefitinib -0.142 | lapatinib 0.161 | pictilisib 0.062 | crizotinib 0.09 | [5] 0.083 | duvelisib -0.022 | gandotinib -0.066 | tozasertib 0.028 | doramapimod -0.044 | bafetinib -0.048 | [6] -0.088

COG2 (UniProt Q14746)
inactive: alvocidib -0.032 | Tubastatin A -0.114 | [1] -0.009 | defactinib 0.05 | [2] 0.028 | encorafenib -0.009 | [3] 0.052 | alisertib 0.021 | [4] -0.022 | gefitinib -0.039 | lapatinib -0.009 | pictilisib -0.03 | crizotinib -0.041 | [5] -0.025 | duvelisib 0.025 | gandotinib -0.118 | tozasertib 0.012 | doramapimod 0.009 | bafetinib -0.027 | [6] 0.02

COA1 (UniProt Q9GZY4)
inactive: alvocidib 0.037 | Tubastatin A 0.031 | [1] -0.016 | defactinib -0.051 | [2] 0.081 | encorafenib 0.007 | [3] -0.001 | alisertib 0.031 | [4] -0.058 | gefitinib 0 | lapatinib -0.043 | pictilisib 0 | crizotinib 0.001 | [5] -0.042 | duvelisib 0.026 | gandotinib 0.059 | tozasertib -0.011 | doramapimod 0.039 | bafetinib -0.111 | [6] 0.042

COQ7 (UniProt Q99807)
inactive: alvocidib -0.039 | Tubastatin A -0.051 | [1] -0.026 | defactinib 0.003 | [2] -0.035 | encorafenib -0.046 | [3] 0.059 | alisertib 0.018 | [4] 0.055 | gefitinib -0.064 | lapatinib -0.007 | pictilisib -0.008 | crizotinib -0.116 | [5] 0.013 | duvelisib 0.108 | gandotinib -0.072 | tozasertib 0.018 | doramapimod 0.04 | bafetinib 0 | [6] 0.094

COCH (UniProt O43405)
inactive: alvocidib -0.018 | Tubastatin A 0.051 | [1] 0.164 | defactinib -0.012 | [2] 0.059 | encorafenib -0.012 | [3] 0.092 | alisertib -0.069 | [4] 0.082 | gefitinib 0.074 | lapatinib 0.104 | pictilisib 0.021 | crizotinib -0.004 | [5] -0.163 | duvelisib -0.033 | gandotinib 0.001 | tozasertib 0.016 | doramapimod 0.006 | bafetinib -0.062 | [6] -0.021

COX18 (UniProt Q8N8Q8)
inactive: alvocidib 0.016 | Tubastatin A -0.028 | [1] 0.039 | defactinib 0.049 | [2] 0.039 | encorafenib -0.118 | [3] 0.002 | alisertib 0.032 | [4] -0.108 | gefitinib 0.064 | lapatinib -0.012 | pictilisib -0.016 | crizotinib -0.057 | [5] -0.071 | duvelisib 0.038 | gandotinib -0.016 | tozasertib -0.021 | doramapimod -0.022 | bafetinib -0.093 | [6] 0.052

COG4 (UniProt Q9H9E3)
inactive: alvocidib 0.028 | Tubastatin A -0.131 | [1] 0.025 | defactinib 0.029 | [2] -0.003 | encorafenib 0.079 | [3] 0.011 | alisertib 0.016 | [4] 0.022 | gefitinib 0.009 | lapatinib -0.02 | pictilisib -0.164 | crizotinib -0.088 | [5] -0.014 | duvelisib 0.022 | gandotinib -0.207 | tozasertib 0.018 | doramapimod 0.026 | bafetinib 0.025 | [6] 0.036

CPPED1 (UniProt Q9BRF8)
inactive: alvocidib -0.105 | Tubastatin A 0.039 | [1] -0.049 | defactinib -0.007 | [2] 0.018 | encorafenib 0.012 | [3] -0.042 | alisertib 0.018 | [4] 0.016 | gefitinib 0.039 | lapatinib -0.019 | pictilisib -0.001 | crizotinib -0.011 | [5] -0.169 | duvelisib 0.037 | gandotinib 0.074 | tozasertib 0.021 | doramapimod 0.048 | bafetinib -0.031 | [6] 0.101

CPS1 isoform 3 (UniProt P31327)
inactive: alvocidib -0.022 | Tubastatin A 0.01 | [1] 0.685 | defactinib -0.033 | [2] 0.113 | encorafenib 0.014 | [3] -0.042 | alisertib -0.051 | [4] 0.222 | gefitinib -0.046 | lapatinib -0.021 | pictilisib -0.003 | crizotinib -0.071 | [5] -0.028 | duvelisib -0.077 | gandotinib 0.102 | tozasertib -0.003 | doramapimod -0.062 | bafetinib -0.028 | [6] 0.099

COPS2 isoform 2 (UniProt P61201)
inactive: alvocidib 0.025 | Tubastatin A 0.017 | [1] 0.01 | defactinib -0.008 | [2] 0.006 | encorafenib 0.012 | [3] -0.014 | alisertib -0.001 | [4] 0 | gefitinib 0.009 | lapatinib -0.044 | pictilisib -0.005 | crizotinib 0.034 | [5] 0.024 | duvelisib -0.002 | gandotinib -0.044 | tozasertib 0.017 | doramapimod -0.053 | bafetinib 0.004 | [6] -0.047

COX7A2L (UniProt O14548)
inactive: alvocidib 0 | Tubastatin A 0.025 | [1] 0.014 | defactinib 0.132 | [2] 0.02 | encorafenib -0.005 | [3] -0.015 | alisertib 0.005 | [4] -0.014 | gefitinib -0.048 | lapatinib 0.03 | pictilisib 0.113 | crizotinib -0.049 | [5] -0.044 | duvelisib 0.004 | gandotinib 0.049 | tozasertib 0.049 | doramapimod 0.055 | bafetinib -0.039 | [6] 0.123

COX6B1 (UniProt P14854)
inactive: alvocidib 0.115 | Tubastatin A 0.094 | [1] 0.084 | defactinib 0.223 | [2] 0.075 | encorafenib -0.001 | [3] 0.021 | alisertib 0.021 | [4] -0.037 | gefitinib -0.071 | lapatinib 0.058 | pictilisib -0.024 | crizotinib -0.002 | [5] 0.187 | duvelisib -0.006 | gandotinib -0.121 | tozasertib 0.05 | doramapimod 0.048 | bafetinib 0.06 | [6] -0.045

CPSF6 isoform 2 (UniProt Q16630)
inactive: alvocidib -0.071 | Tubastatin A 0.026 | [1] -0.024 | defactinib -0.015 | [2] -0.001 | encorafenib 0.032 | [3] -0.015 | alisertib -0.009 | [4] 0.001 | gefitinib 0.009 | lapatinib 0.005 | pictilisib 0 | crizotinib 0.054 | [5] -0.017 | duvelisib 0.001 | gandotinib -0.108 | tozasertib 0.008 | doramapimod 0 | bafetinib 0.022 | [6] 0.008

Quoted at random: 2 entries already listed
COX7A2L (UniProt O14548)
inactive: alvocidib 0 | Tubastatin A 0.025 | [1] 0.014 | defactinib 0.132 | [2] 0.02 | encorafenib -0.005 | [3] -0.015 | alisertib 0.005 | [4] -0.014 | gefitinib -0.048 | lapatinib 0.03 | pictilisib 0.113 | crizotinib -0.049 | [5] -0.044 | duvelisib 0.004 | gandotinib 0.049 | tozasertib 0.049 | doramapimod 0.055 | bafetinib -0.039 | [6] 0.123

COCH (UniProt O43405)
inactive: alvocidib -0.018 | Tubastatin A 0.051 | [1] 0.164 | defactinib -0.012 | [2] 0.059 | encorafenib -0.012 | [3] 0.092 | alisertib -0.069 | [4] 0.082 | gefitinib 0.074 | lapatinib 0.104 | pictilisib 0.021 | crizotinib -0.004 | [5] -0.163 | duvelisib -0.033 | gandotinib 0.001 | tozasertib 0.016 | doramapimod 0.006 | bafetinib -0.062 | [6] -0.021

(further entries)

CPSF4 (UniProt O95639)
inactive: alvocidib -0.029 | Tubastatin A -0.102 | [1] -0.017 | defactinib -0.075 | [2] 0.033 | encorafenib 0.16 | [3] 0.034 | alisertib 0.065 | [4] -0.005 | gefitinib -0.055 | lapatinib 0.023 | pictilisib -0.012 | crizotinib -0.033 | [5] -0.083 | duvelisib -0.008 | gandotinib -0.037 | tozasertib -0.174 | doramapimod 0.1 | bafetinib 0.033 | [6] 0.16

COX19 (UniProt Q49B96)
inactive: alvocidib -0.056 | Tubastatin A 0.06 | [1] 0.032 | defactinib 0 | [2] 0.047 | encorafenib 0.001 | [3] -0.066 | alisertib -0.015 | [4] -0.013 | gefitinib -0.029 | lapatinib -0.062 | pictilisib -0.035 | crizotinib 0.051 | [5] -0.086 | duvelisib -0.003 | gandotinib 0.016 | tozasertib 0 | doramapimod -0.005 | bafetinib 0.047 | [6] -0.044
